Values from PubChem BioAssay AID504793 (Drosophila RNAi Screening Center, 2011).

- Test: 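Genes required for cells to halt at G2/M after double-strand DNA breaks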 (primary screen)
- Cells: Drosophila S2R+ cells
- Reagents: long dsRNA against Drosophila genes, about 0.25 µg dsRNA per well
- Time to read-out: 4 days of dsRNA, then 4 hours of drug before read-out
- Treatment: doxorubicin 0.5 µM for 4 hours to cause double-strand breaks, in cells also given a low, harmless dose of dsRNA against nbs to sensitise the assay
- Detection: 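Per-well count of mitotic cells stained for phospho-histone H3 after doxorubicin exposure, used as mitotic index; counts are raw and not normalised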
- Reading the numbers: mitotic cells: higher = more cells in mitosis, weaker G2 arrest
- Active means: 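a call needs confirmation in secondary tests, with other dsRNAs and a check of mitotic timing without damage, not just a high primary count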
- Meaning of the calls: active = confirmed in follow-up tests; inactive = not confirmed
In all, the deposit lists about 23,000 reagents; shown is a random part of those with a known target gene and a result. In the full data, 62 (0.27%) got an active call. 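Calls come from follow-up tests whose scores are not deposited, so confirmed genes may have low counts here; counts are not normalised per plate.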 Raw values are not corrected between plates. The numbers tell different reagents against one gene apart. A plus sign joins genes that one reagent is predicted to hit.

CG9123 showed mitotic cells, replicate 1 = 3; inactive. Against CG6836 #1, the entry reads mitotic cells, replicate 1 = 2; inactive. With knock-down of CG6836 #2, the record shows mitotic cells, replicate 1 = 3; inactive. After knock-down of Cyp9c1 the results were mitotic cells, replicate 1 = 7; inactive. Depletion of pgc resulted in: mitotic cells, replicate 1 = 6; inactive. Against CG15536 #1, the entry reads mitotic cells, replicate 1 = 3; inactive.

Knock-down of CG15536 #2 came out at: mitotic cells, replicate 1 = 7; inactive. CG15536 #3 showed mitotic cells, replicate 1 = 6; inactive. Acadvl #1 scored mitotic cells, replicate 1 = 8; inactive. Silencing of Acadvl #2 came out at: mitotic cells, replicate 1 = 6; inactive. With knock-down of CG9932, the record shows mitotic cells, replicate 1 = 6; inactive. Depletion of CG11400 resulted in: mitotic cells, replicate 1 = 6; inactive.

After knock-down of Nplp3, the record shows mitotic cells, replicate 1 = 5; inactive. Knock-down of HIP + HIP-R #1 resulted in: mitotic cells, replicate 1 = 5; inactive. With knock-down of HIP + HIP-R #2 the results were mitotic cells, replicate 1 = 16; inactive.

Already shown: 2 of the entries above.
pgc: mitotic cells, replicate 1 = 6; Outcome = inactive
CG15536 #1: mitotic cells, replicate 1 = 3; Outcome = inactive
